According to paper PMC7067740:
No constants are given. Whether binding was seen depends on the method and setting. In cells and extracts the contact can be indirect. Some binding calls cover weakened binding; strength is not graded here. Sequences can lack the tags named with a protein.

B1: Flag-tagged full-length NDRG2 (N-myc downstream regulated gene 2) (protein, UniProt Q9QYG0 1-371)
chain: MAELQEVQITEEKPLLPGQTPETAKEAELAARILLDQGQTHSVETPYGSVTFTVYGTPKPKRPAIFTYHDVGLNYKSCFQPLFRFGDMQEIIQNFVRVHVDAPGMEEGAPVFPLGYQYPSLDQLADMIPCILQYLNFSTIIGVGVGAGAYILSRYALNHPDTVEGLVLINIDPNAKGWMDWAAHKLTGLTSSIPDMILGHLFSQEELSGNSELIQKYRGIIQHAPNLENIELYWNSYNNRRDLNFERGGETTLKCPVMLVVGDQAPHEDAVVECNSKLDPTQTSFLKMADSGGQPQLTQPGKLTEAFKYFLQGMGYMASSCMTRLSRSRTASLTSAASIDGSRSRSRTLSQSSESGTLPSGPPGHTMEVSC
B2: endogenous NDRG2 (N-myc downstream regulated gene 2) (protein, UniProt Q9QYG0 1-371)
chain: B1 chain

How the values were obtained:
[1] = biological target: Myc-tagged full-length Na+/K+-ATPase β1 (UniProt P14094); assay: co-IP; Flag-tagged full-length NDRG2 and Myc-tagged Na+/K+-ATPase β1 cotransfected into HEK293 cells for 48 h; IP with anti-Myc or anti-Flag, immunoblot; lysis buffer 50 mM Tris-HCl, 150 mM NaCl, 5 mM EDTA, 1% Lubrol; 10 h at 4 °C
[2] = biological target: endogenous Na+/K+-ATPase β1 (mouse (endogenous in cultured mouse astrocytes and mouse brain)) (UniProt P14094); assay: co-IP; endogenous proteins in lysate of cultured mouse astrocytes; lysis buffer 50 mM Tris-HCl, 150 mM NaCl, 5 mM EDTA, 1% Lubrol; protein A/G Sepharose, 10 h at 4 °C

Row | binding [1] | binding [2] | Binder
1 | binds |  | B1
2 |  | binds | B2
